Test results published in PubChem BioAssay AID1508600 (Functional Genomics Laboratory (NCATS/FGL), 2020).
The whole screen tested about 53,000 sequences, of which about 3,700 (7%) were called active.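 The calls were made as follows: active = gene knockdowns whose robust z-score for IL-1 alpha signal is at least 2 or at most -2, so actives lie on both sides; inactive = the rest.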 Some of the results follow.

Test: Components of the Cytosolic LPS Sensing Pathway: Gene Identification via Genome-wide siRNA Screen
Settings: RAW264.7 macrophages, IL-1a HTRF, actives lie on both sides, screened at 100 nM (by protocol), cells primed 5 h with Pam3CSK4 first
From the text: Non-canonical inflammasome activation by cytosolic LPS is a critical component of the host response to Gram-negative bacterial infection, however we lack a comprehensive understanding of the cellular processes that control this pathway. Here we describe a genome-wide siRNA screen to identify genes regulating the mouse macrophage IL-1 alpha response to cytosolic LPS.
RAW264.7 cells were maintained in complete DMEM media, comprising DMEM with 4.5 g/L glucose, 10% FBS (Gemini Bio-Products, West Sacramento, CA), 2 mM Glutamine (Lonza) and 20 mM HEPES (Lonza), hereafter complete DMEM.
The RNAi screen was conducted in 384-well format using the Ambion Silencer Mouse Genome siRNA Library (#4391425), which consists of three unique, nonoverlapping, nonpooled siRNAs for each of 17,000 gene targets. siRNA reagents ([…]) were stamped into 384-well white flat-bottom microplates (Corning, 3570) using a Velocity11 VPrep liquid handling system (Agilent) integrated into a BioCel robotic platform (Agilent) in columns 1-22, leaving columns 23-24 empty for negative (Ambion, Negative control #1) and positive (mouse Casp4) controls, respectively. The median value of each plate's negative control column was used to normalize sample wells, and the positive control was used to assess transfection efficiency and assay performance.
Lipofectamine RNAiMAX Transfection Reagent ([…]; Invitrogen) was added in […] serum-free, antibiotic-free media to plate wells using a Thermo Scientific Matrix WellMate and Microplate Stacker. Plates were incubated for 45 min at room temperature to allow for the sufficient formation of siRNA-lipid complexes. Cells were seeded at a density of 1x10^4 cells per well in 20 microL media containing 20% (vol/vol) FBS without antibiotics. The final concentration of siRNA in each well was 100 nM. Cells were cultured for 48h at 37 degrees C in 5% CO2 before addition of […] of TLR ligand Pam3CSK4 for 5 hours. The medium was then removed, replaced with […] growth media and cell were transfected with […] of LipidA and TransIT-TKO (Mirus) for 24 hour. At the end of the LipidA treatment, […] of supernatant was transferred to a 384 Greiner Bio-one non-binding low volume plate and […] of IL-1a HTRF reagent (Cisbio, 62MIL1APEH) was added and incubated at room temperature overnight. The plates were read on an EnVision plate reader (PerkinElmer). Cell viability was measured by adding 20ul Cell Titer Glo to the original plate and running a luminescence read on the EnVision. The quantified IL-1a signal for each siRNA gene-targeted well was divided by the median of the negative control wells and multiplied by 100 to achieve a negative control normalized value for each well/siRNA. This normalized value was then used to generate a robust z-score by first taking the log of each value and then by subtracting the median and dividing by the […].

Question: With CUCGCUAGAGAAAGACAGATT against Olfr111 as the sequence, how does the z-score read?
Answer: inactive: 0.562

Question: With GGGUUCGAUGUUGAAAAAGTT against Lzic as the sequence, how does the z-score read?
Answer: inactive: -0.23

Question: For GCUCAUACCUAUCUCAAGGTT against Tnfsf9, which z-score is on record?
Answer: inactive: 0.365

Question: Which z-score does the source give for GGCCGUGUCGUACACUAUGTT against Nyap1 here?
Answer: inactive: 0.937

Question: Which z-score does the source give for GCAGAUGGCACAAUAUGAATT against Ppy here?
Answer: inactive: -0.738

Question: For GCAACCGCGUCACAUUGAATT against Bicc1, which z-score is on record?
Answer: inactive: 0.655

Question: Which z-score does the source give for GGAUCUAUGACAAAAGAAGTT against Snx5 here?
Answer: inactive: -0.199

Question: For GGUGCUUGGGAAUUUUGAUTT against Gpsm2, which z-score is on record?
Answer: active: 2.31

Question: For GGCUCUUCAACCUCUUACUTT against Ddost, which z-score is on record?
Answer: inactive: -1.49

Question: Which z-score does the source give for GCAUUCAACUCAGAUCUCUTT against Fat3 here?
Answer: inactive: -0.536

Question: Which z-score does the source give for CCAGAACUAGCAAUAAAUATT against Noxa1 here?
Answer: inactive: -0.0513

Question: With GGCAAUAUGAAGGAGGUUUTT against Ckm as the sequence, how does the z-score read?
Answer: inactive: 1.9

Question: For GGUUUCUUAGAUUAGCUAGTT against Map3k12, which z-score is on record?
Answer: inactive: 0.445

Question: Which z-score does the source give for GGUGGUUGGUACCUACAAUTT against Ghdc here?
Answer: inactive: 1.37

Question: For CGCCUCAUCAUCUCGAUUCTT against Cnga3, which z-score is on record?
Answer: inactive: -1.63

Question: With GGUCAUCAGCUUGUAACCATT against Mmadhc as the sequence, how does the z-score read?
Answer: inactive: -1.37

Question: With GCAAGCUUAGUGAAACUCUTT against Sdr42e1 as the sequence, how does the z-score read?
Answer: inactive: 0.395

Question: For “GCAACACAAACACUGGCUATT against D930020B18Rik”, which z-score is on record?
Answer: inactive: -1.57

Question: For GGCUGUAUUUGGACAAAGCTT against Nxt2, which z-score is on record?
Answer: inactive: 1.42

Question: Which z-score does the source give for GCAAAACAGAAUCAUCCUCTT against Taar6 here?
Answer: inactive: -0.0022

Question: For CGGCGAGUUCAGAAACAGCTT against Dab2ip, which z-score is on record?
Answer: inactive: 0.363

Question: Which z-score does the source give for GGAGUCACCAGACUUGUGUTT against Svs3b here?
Answer: inactive: 0.637

Question: Which z-score does the source give for GGUCAACACCUUAGAAACUTT against Lyn here?
Answer: inactive: -0.928

Question: For CCUACUGGAAAAGAUAAUUTT against Stfa1, which z-score is on record?
Answer: inactive: 1.82

Question: With GCCCUCCGAGAAAAACAUCTT against Gjb5 as the sequence, how does the z-score read?
Answer: active: 2.05

Question: Which z-score does the source give for GGUUAUUAUGUGUUUGACUTT against Atxn7 here?
Answer: inactive: 0.769

Question: With GAGCUUUUCGCCAGAAGUGTT against Tcstv3 as the sequence, how does the z-score read?
Answer: inactive: -0.905

Question: With GGUAAGGGUAAAGAUUCUUTT against Pgk2 as the sequence, how does the z-score read?
Answer: inactive: 0.249

Question: For CCGACUUGAGGUUUCAAAGTT against H3f3b, which z-score is on record?
Answer: inactive: -0.74

Question: With GCCAAAUGCGUUAUCAAUGTT against Gpd2 as the sequence, how does the z-score read?
Answer: inactive: 1.3

Question: With CCUCAUCGAUGCACUACCCTT against Lrfn4 as the sequence, how does the z-score read?
Answer: inactive: -0.338

Question: For GGCAAAUCCCGUUUCCAGATT against Hspb3, which z-score is on record?
Answer: inactive: 0.325

Question: Which z-score does the source give for GGCACGUCUGGACAACAUCTT against Cd22 here?
Answer: inactive: -0.707

Question: For CGCGAUUCUGGAUGAGAACTT against Cacnb3, which z-score is on record?
Answer: inactive: 0.6

Question: With “GGAAAUACGACAACAGCCATT against 2700097O09Rik” as the sequence, how does the z-score read?
Answer: inactive: -0.383

Question: Which z-score does the source give for GGAUGUGUCAGAAAAGUUATT against Lars2 here?
Answer: inactive: 0.641

Question: Which z-score does the source give for GGUGGAUCUUCCUCAAAGUTT against Sharpin here?
Answer: inactive: -1.89

Question: Which z-score does the source give for GCAGGAUCCUGAAACCAUGTT against Lrrc14 here?
Answer: active: -2.09

Question: For CCGUAAGGAUGAAGAGAUATT against Casp8ap2, which z-score is on record?
Answer: inactive: -0.966

Question: With CCUUCAACAGAUCUAGAGUTT against Rexo1 as the sequence, how does the z-score read?
Answer: active: 2.36

Question: For GGCAAAAAGACUUUGAUAUTT against Dnajc1, which z-score is on record?
Answer: inactive: 0.405

Question: With GGCCAUUGCUCAAUGGAAGTT against Rtp2 as the sequence, how does the z-score read?
Answer: inactive: 0.094

Question: With GGAUGGGAAGACUACCCGATT against Camta2 as the sequence, how does the z-score read?
Answer: active: -2.62

Question: For CCGACAUUUUCGUCACCAGTT against Gabra1, which z-score is on record?
Answer: inactive: -1

Question: Which z-score does the source give for GCCUAAACAAGCCGAUGUGTT against Gap43 here?
Answer: inactive: 0.837

Question: For GGUGCUGACUGACAAAGAATT against Tnfaip1, which z-score is on record?
Answer: inactive: 1.05

Question: Which z-score does the source give for CCGUUCACAUGCAUCACUGTT against Olfr1378 here?
Answer: inactive: 0.0824

Question: With CCAAGAGACCUUUGGACGATT against Tgfbrap1 as the sequence, how does the z-score read?
Answer: inactive: 0.606

Question: For GGAAAUGAAGCUAGUUUAATT against Usp38, which z-score is on record?
Answer: inactive: 0.944

Question: With GCGUGCUGGUUUUCUGAUUTT against Sbno2 as the sequence, how does the z-score read?
Answer: inactive: 0.333

Question: Which z-score does the source give for GGGACAUGUUUUGAUAAAGTT against Yy1 here?
Answer: inactive: -0.591

Question: For GAACCAGACUAAGAACUGUTT against Cox6b1, which z-score is on record?
Answer: active: 5.31

Question: For GGCCAUGGAGAACAUAUGCTT against Trpm8, which z-score is on record?
Answer: active: -2.09

Question: For GGUAUUCAUAAGAACACAGTT against Plin4, which z-score is on record?
Answer: inactive: -0.644

Question: With GGAGUGUGUGCUGUCAGAATT against Nr1h3 as the sequence, how does the z-score read?
Answer: inactive: 0.717

Question: For GUUGUGGUAUCUUGGGCAGTT against Olfr1217, which z-score is on record?
Answer: inactive: 1.81

Question: With GGAUUAUUACAUCGAGCUUTT against Idi1 as the sequence, how does the z-score read?
Answer: inactive: -0.155

Question: With GGCAUUGAAUUUGACUGGATT against Tmem147 as the sequence, how does the z-score read?
Answer: inactive: 0.691

Question: For GCUUACUUUGGAACACAAATT against Tex18, which z-score is on record?
Answer: inactive: 1.22

Question: For GCUAUACGCUCAAGCUAAATT against Fbxl8, which z-score is on record?
Answer: inactive: 0.2

Question: For GGAUCUUUGAUAGUUGAGATT against Hspd1, which z-score is on record?
Answer: inactive: 0.0307

Question: Which z-score does the source give for CGAUCCUCAUCUUUAUAUATT against Agbl1 here?
Answer: inactive: -0.33

Question: Which z-score does the source give for CCACGGUUUCAUUUACUAATT against Tm7sf3 here?
Answer: inactive: 0.142

Question: For CCACAUGAUGUAAAACUUATT against P4ha1, which z-score is on record?
Answer: inactive: 0.52

Question: For GGUUAUGGUAUUAACAGGUTT against Slc17a4, which z-score is on record?
Answer: inactive: 0.112

Question: Which z-score does the source give for GGCCUUCAAUCACCUAGAGTT against Pde6g here?
Answer: inactive: -0.891

Question: For GGAGUUUUAUGGACGAGGATT against Nenf, which z-score is on record?
Answer: inactive: -0.319

Question: For GCAGUAUGAGGUAAAUUAUTT against Amer3, which z-score is on record?
Answer: inactive: 1.05

Question: With GGGAGACAACCAAAGUGAATT against Cngb3 as the sequence, how does the z-score read?
Answer: inactive: -0.525
